The other results are listed elsewhere or left out.
biological target: ZNF629 (UniProt Q9UEG4); assay: log2 fold change, soluble protein after heating vs DMSO (PISA); higher = thermal stabilisation; K562 cells, 10 uM, 30 min; active = over 0.2 and 3.5 SD of the protein, either way, in both replicates (recomputed)
Method in brief: (§1)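 Aliquots of K562 cells (2×10^6 cells/mL) treated with 10 μM compound for 30 min were heated for 3 min over 48°C-58°C. After pooling and extraction in PBS with 0.5% NP-40 at 4°C, soluble protein from a 21,000xg, 90 min spin was quantified by TMTpro 16plex LC-MS/MS with channel sums equalised. Thermal stability is expressed against control samples, from duplicates, as a log2 fold change.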

Sequences of proteins named here, by UniProt entry; tags and fusion partners are left off. A change or cut given only in a name is not applied to a line headed by its entry.
UniProt Q9UEG4: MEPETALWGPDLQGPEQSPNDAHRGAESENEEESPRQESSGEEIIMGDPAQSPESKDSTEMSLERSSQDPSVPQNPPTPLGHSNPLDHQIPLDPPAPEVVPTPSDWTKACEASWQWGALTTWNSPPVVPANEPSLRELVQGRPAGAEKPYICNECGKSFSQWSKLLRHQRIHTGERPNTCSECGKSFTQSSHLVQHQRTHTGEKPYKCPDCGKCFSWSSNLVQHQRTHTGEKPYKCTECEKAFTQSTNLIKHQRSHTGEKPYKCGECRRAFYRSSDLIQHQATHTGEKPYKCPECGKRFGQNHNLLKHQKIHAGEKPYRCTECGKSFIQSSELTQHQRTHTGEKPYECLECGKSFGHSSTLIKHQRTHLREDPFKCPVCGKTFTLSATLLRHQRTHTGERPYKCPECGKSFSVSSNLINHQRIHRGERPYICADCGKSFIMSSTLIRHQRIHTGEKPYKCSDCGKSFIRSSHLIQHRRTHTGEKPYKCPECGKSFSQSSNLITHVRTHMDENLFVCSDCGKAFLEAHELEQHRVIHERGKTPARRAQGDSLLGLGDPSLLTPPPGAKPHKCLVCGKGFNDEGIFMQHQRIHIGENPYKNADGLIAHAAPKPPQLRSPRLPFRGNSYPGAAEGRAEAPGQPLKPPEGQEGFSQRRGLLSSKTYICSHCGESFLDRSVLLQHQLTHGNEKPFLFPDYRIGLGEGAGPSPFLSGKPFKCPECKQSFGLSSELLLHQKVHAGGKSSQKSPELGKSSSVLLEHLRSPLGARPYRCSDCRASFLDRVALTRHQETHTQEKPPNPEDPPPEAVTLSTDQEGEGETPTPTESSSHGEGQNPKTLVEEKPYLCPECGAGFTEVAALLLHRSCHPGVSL
UniProt Q14966: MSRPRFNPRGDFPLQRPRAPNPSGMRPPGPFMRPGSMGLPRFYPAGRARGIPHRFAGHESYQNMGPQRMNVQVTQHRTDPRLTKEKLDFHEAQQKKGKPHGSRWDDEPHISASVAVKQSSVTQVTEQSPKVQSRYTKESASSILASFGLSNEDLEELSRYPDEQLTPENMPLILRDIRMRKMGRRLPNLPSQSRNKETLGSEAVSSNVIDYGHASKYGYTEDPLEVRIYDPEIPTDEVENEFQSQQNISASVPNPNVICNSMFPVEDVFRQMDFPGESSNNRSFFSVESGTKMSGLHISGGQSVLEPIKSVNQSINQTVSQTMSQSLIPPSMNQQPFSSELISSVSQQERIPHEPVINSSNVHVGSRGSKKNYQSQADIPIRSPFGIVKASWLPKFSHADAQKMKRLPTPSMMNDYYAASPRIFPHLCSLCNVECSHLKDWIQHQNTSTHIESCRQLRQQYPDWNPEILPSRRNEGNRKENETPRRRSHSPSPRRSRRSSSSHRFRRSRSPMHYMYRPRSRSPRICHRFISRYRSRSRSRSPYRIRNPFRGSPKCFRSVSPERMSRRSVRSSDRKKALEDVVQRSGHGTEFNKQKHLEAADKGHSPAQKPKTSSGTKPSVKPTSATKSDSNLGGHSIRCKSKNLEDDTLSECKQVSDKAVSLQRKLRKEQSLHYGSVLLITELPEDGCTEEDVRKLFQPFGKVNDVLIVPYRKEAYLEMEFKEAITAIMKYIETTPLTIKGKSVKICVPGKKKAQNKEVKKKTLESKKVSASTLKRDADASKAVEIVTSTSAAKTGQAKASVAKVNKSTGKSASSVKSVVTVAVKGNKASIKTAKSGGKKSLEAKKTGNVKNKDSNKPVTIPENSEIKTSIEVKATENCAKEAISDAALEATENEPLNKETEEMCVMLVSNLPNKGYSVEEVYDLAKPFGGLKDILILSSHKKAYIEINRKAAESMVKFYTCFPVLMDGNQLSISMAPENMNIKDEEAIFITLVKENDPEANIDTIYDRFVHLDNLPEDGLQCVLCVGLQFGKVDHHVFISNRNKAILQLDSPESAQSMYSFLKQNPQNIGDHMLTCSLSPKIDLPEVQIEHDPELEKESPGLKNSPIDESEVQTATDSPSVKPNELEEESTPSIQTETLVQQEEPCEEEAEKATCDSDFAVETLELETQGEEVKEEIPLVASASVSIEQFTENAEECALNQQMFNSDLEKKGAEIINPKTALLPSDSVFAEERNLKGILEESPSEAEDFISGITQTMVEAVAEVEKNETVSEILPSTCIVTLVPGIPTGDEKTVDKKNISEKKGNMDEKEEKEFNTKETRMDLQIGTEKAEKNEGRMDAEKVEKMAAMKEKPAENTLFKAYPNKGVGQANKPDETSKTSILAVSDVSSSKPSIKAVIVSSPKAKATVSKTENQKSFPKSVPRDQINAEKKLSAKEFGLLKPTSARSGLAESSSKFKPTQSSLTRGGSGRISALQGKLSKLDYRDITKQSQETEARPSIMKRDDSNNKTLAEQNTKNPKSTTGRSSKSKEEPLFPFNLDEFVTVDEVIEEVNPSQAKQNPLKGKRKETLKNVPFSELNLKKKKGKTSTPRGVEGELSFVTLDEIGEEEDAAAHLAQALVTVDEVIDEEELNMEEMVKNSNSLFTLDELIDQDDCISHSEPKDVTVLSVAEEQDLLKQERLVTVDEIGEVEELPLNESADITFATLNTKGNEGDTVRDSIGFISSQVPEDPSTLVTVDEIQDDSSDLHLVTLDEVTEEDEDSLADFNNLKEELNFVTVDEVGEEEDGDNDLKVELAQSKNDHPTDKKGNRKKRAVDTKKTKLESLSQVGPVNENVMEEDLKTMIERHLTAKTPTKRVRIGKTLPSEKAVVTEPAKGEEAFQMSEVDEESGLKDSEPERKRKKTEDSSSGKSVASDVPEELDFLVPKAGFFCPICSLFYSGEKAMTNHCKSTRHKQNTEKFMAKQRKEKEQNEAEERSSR

log2 fold change, inactive:
CCCc1cc(C)[nH]c(=O)c1CNC(=O)c1cc(-c2ccnc(N3CCN(C)CC3)c2)cc2c1cnn2C(C)C 0.173
Cc1cccc(-c2[nH]c(C(C)(C)C)nc2-c2ccc3nccnc3c2)n1 -0.118
COc1cc2ncnc(Nc3ccc(F)c(Cl)c3)c2cc1OCCCN1CCOCC1 [gefitinib] 0.038
Cc1cc(Nc2cc(CN3CCOCC3)c3nc(C)c(Cc4ccc(Cl)cc4F)n3n2)n[nH]1 [gandotinib] 0.076
NC1(c2ccc(-c3nc4ccn5c(=O)[nH]nc5c4cc3-c3ccccc3)cc2)CCC1 0.186
O=C1NC(=O)/C(=C\c2ccc3nccnc3c2)S1 -0.057
CCN(CCCOc1ccc2c(Nc3cc(CC(=O)Nc4cccc(F)c4)[nH]n3)ncnc2c1)CCOP(=O)(O)O [barasertib] -0.203
Cc1ncc(-c2ccnc(Nc3ccc(S(C)(=O)=O)cc3)n2)n1C(C)C -0.125
Cc1cccc(CC(=O)N2CCc3c2ccc(-c2cn(C)c4ncnc(N)c24)c3F)n1 -0.026
COc1cccc2cc(-c3nc([C@H]4CC[C@H](C(=O)O)CC4)n4ncnc(N)c34)[nH]c12 -0.213
Cc1ccc(NC(=O)c2ccc(CN3CC[C@H](N(C)C)C3)c(C(F)(F)F)c2)cc1Nc1nccc(-c2cncnc2)n1 [bafetinib] 0.151
CCn1cc(-c2ccnc3[nH]c(-c4cccc(CN(C)C)c4)cc23)c(-c2ccc(NC(=O)N(C)C)cc2)n1 -0.004
CC(C)N(C[C@H]1O[C@@H](n2cnc3c(N)ncnc32)[C@H](O)[C@@H]1O)[C@H]1C[C@@H](CCc2nc3cc(C(C)(C)C)ccc3[nH]2)C1 [pinometostat] 0.234
CN1CCC(CNc2ccc3ncc(-c4cccc(OC(F)(F)F)c4)n3n2)CC1 0.177
C[C@@H](N)c1ccc(C(=O)Nc2ccnc3[nH]ccc23)cc1 0.257
CC[C@H](C)n1cc(C)c2c(C(=O)NCc3c(C)cc(C)[nH]c3=O)cc(-c3ccc(N4CCNCC4)nc3)cc21 -0.293
COc1ccc(Cn2ccc3ccc(C(=O)NO)cc32)cc1 -0.06
CS(=O)(=O)N1CCN(Cc2cc3nc(-c4cccc5[nH]ncc45)nc(N4CCOCC4)c3s2)CC1 [pictilisib] 0.226
COc1cc(Nc2ncc3c(n2)-c2ccc(Cl)cc2C(c2c(F)cccc2OC)=NC3)ccc1C(=O)O [alisertib] -0.046
Cn1cc(-c2ccc3c(c2)CCN3C(=O)Cc2cccc(C(F)(F)F)c2)c2c(N)ncnc21 -0.3
O=C(CCCCCCC(=O)Nc1ccccc1)NO [vorinostat] -0.089
C[C@@H](Oc1cc(-c2cnn(C3CCNCC3)c2)cnc1N)c1c(Cl)ccc(F)c1Cl [crizotinib] -0.004
Cc1ccc(-n2nc(C(C)(C)C)cc2NC(=O)Nc2ccc(OCCN3CCOCC3)c3ccccc23)cc1 [doramapimod] 0.29
Cc1cn(-c2cc(NC(=O)c3ccc(C)c(Nc4nccc(-c5cccnc5)n4)c3)cc(C(F)(F)F)c2)cn1 [nilotinib] 0.151
O=C(O)c1ccc2c(c1)nc(Nc1cccc(Cl)c1)c1ccncc12 [silmitasertib] 0.124
C=CC(=O)N1CCC[C@@H](n2nc(-c3ccc(Oc4ccccc4)cc3)c3c(N)ncnc32)C1 [ibrutinib] -0.049
O=C(Nc1nc2ccccc2n1CCN1CCOCC1)c1cccc([N+](=O)[O-])c1 [IRAK-1-4 Inhibitor I] -0.026
Cc1nc(Nc2n[nH]c3c2CN(C(=O)N[C@H](CN(C)C)c2ccccc2)C3(C)C)c2sccc2n1 -0.166
CO[C@H]1C[C@@H]2CC[C@@H](C)[C@@](O)(O2)C(=O)C(=O)N2CCCC[C@H]2C(=O)O[C@H]([C@H](C)C[C@@H]2CC[C@H](n3cnnn3)[C@H](OC)C2)CC(=O)[C@H](C)/C=C(\C)[C@@H](O)[C@@H](OC)C(=O)[C@H](C)C[C@H](C)/C=C/C=C/C=C/1C [zotarolimus] -0.024
FC(F)(F)c1ccc(/C=C/c2nc(COc3ccc(CCCCn4ccnn4)cc3)co2)cc1 [mubritinib] -0.133

biological target: ZNF638 (UniProt Q14966); assay: as above
Method in brief: as §1

log2 fold change, inactive:
CCCc1cc(C)[nH]c(=O)c1CNC(=O)c1cc(-c2ccnc(N3CCN(C)CC3)c2)cc2c1cnn2C(C)C -0.248
Cc1cccc(-c2[nH]c(C(C)(C)C)nc2-c2ccc3nccnc3c2)n1 0.009
Cc1cc(Nc2cc(CN3CCOCC3)c3nc(C)c(Cc4ccc(Cl)cc4F)n3n2)n[nH]1 [gandotinib] -0.04
NC1(c2ccc(-c3nc4ccn5c(=O)[nH]nc5c4cc3-c3ccccc3)cc2)CCC1 0.18
O=C1NC(=O)/C(=C\c2ccc3nccnc3c2)S1 -0.039
CCN(CCCOc1ccc2c(Nc3cc(CC(=O)Nc4cccc(F)c4)[nH]n3)ncnc2c1)CCOP(=O)(O)O [barasertib] -0.063
Cc1cccc(CC(=O)N2CCc3c2ccc(-c2cn(C)c4ncnc(N)c24)c3F)n1 -0.002
COc1cccc2cc(-c3nc([C@H]4CC[C@H](C(=O)O)CC4)n4ncnc(N)c34)[nH]c12 0.104
Cc1ccc(NC(=O)c2ccc(CN3CC[C@H](N(C)C)C3)c(C(F)(F)F)c2)cc1Nc1nccc(-c2cncnc2)n1 [bafetinib] -0.023
CCn1cc(-c2ccnc3[nH]c(-c4cccc(CN(C)C)c4)cc23)c(-c2ccc(NC(=O)N(C)C)cc2)n1 0.102
CC(C)N(C[C@H]1O[C@@H](n2cnc3c(N)ncnc32)[C@H](O)[C@@H]1O)[C@H]1C[C@@H](CCc2nc3cc(C(C)(C)C)ccc3[nH]2)C1 [pinometostat] 0.018
CN1CCC(CNc2ccc3ncc(-c4cccc(OC(F)(F)F)c4)n3n2)CC1 0.046
C[C@@H](N)c1ccc(C(=O)Nc2ccnc3[nH]ccc23)cc1 -0.053
COc1ccc(Cn2ccc3ccc(C(=O)NO)cc32)cc1 0.018
CS(=O)(=O)N1CCN(Cc2cc3nc(-c4cccc5[nH]ncc45)nc(N4CCOCC4)c3s2)CC1 [pictilisib] -0.066
COc1cc(Nc2ncc3c(n2)-c2ccc(Cl)cc2C(c2c(F)cccc2OC)=NC3)ccc1C(=O)O [alisertib] -0.031
Cn1cc(-c2ccc3c(c2)CCN3C(=O)Cc2cccc(C(F)(F)F)c2)c2c(N)ncnc21 -0.087
O=C(CCCCCCC(=O)Nc1ccccc1)NO [vorinostat] 0.015
C[C@@H](Oc1cc(-c2cnn(C3CCNCC3)c2)cnc1N)c1c(Cl)ccc(F)c1Cl [crizotinib] -0.048
Cc1ccc(-n2nc(C(C)(C)C)cc2NC(=O)Nc2ccc(OCCN3CCOCC3)c3ccccc23)cc1 [doramapimod] 0.053
O=C(O)c1ccc2c(c1)nc(Nc1cccc(Cl)c1)c1ccncc12 [silmitasertib] 0.003
C=CC(=O)N1CCC[C@@H](n2nc(-c3ccc(Oc4ccccc4)cc3)c3c(N)ncnc32)C1 [ibrutinib] 0.023
O=C(Nc1nc2ccccc2n1CCN1CCOCC1)c1cccc([N+](=O)[O-])c1 [IRAK-1-4 Inhibitor I] -0.036
CO[C@H]1C[C@@H]2CC[C@@H](C)[C@@](O)(O2)C(=O)C(=O)N2CCCC[C@H]2C(=O)O[C@H]([C@H](C)C[C@@H]2CC[C@H](n3cnnn3)[C@H](OC)C2)CC(=O)[C@H](C)/C=C(\C)[C@@H](O)[C@@H](OC)C(=O)[C@H](C)C[C@H](C)/C=C/C=C/C=C/1C [zotarolimus] 0.018
FC(F)(F)c1ccc(/C=C/c2nc(COc3ccc(CCCCn4ccnn4)cc3)co2)cc1 [mubritinib] 0.134

Source: the supplement of paper PMC10849652
